The target of this series is Puf5p (PUF5-PUP chimera) (Saccharomyces cerevisiae) (UniProt P39016). Kind of series: binding assay. As to conditions: protein in cells.
[1] abbreviates: in vivo RNA Tagging of endogenous PHD1 mRNA carrying both intact elements.

Sequences of proteins named here, by UniProt entry; tags and fusion partners are left off. A change or cut given only in a name is not applied to a line headed by its entry.
UniProt P39016: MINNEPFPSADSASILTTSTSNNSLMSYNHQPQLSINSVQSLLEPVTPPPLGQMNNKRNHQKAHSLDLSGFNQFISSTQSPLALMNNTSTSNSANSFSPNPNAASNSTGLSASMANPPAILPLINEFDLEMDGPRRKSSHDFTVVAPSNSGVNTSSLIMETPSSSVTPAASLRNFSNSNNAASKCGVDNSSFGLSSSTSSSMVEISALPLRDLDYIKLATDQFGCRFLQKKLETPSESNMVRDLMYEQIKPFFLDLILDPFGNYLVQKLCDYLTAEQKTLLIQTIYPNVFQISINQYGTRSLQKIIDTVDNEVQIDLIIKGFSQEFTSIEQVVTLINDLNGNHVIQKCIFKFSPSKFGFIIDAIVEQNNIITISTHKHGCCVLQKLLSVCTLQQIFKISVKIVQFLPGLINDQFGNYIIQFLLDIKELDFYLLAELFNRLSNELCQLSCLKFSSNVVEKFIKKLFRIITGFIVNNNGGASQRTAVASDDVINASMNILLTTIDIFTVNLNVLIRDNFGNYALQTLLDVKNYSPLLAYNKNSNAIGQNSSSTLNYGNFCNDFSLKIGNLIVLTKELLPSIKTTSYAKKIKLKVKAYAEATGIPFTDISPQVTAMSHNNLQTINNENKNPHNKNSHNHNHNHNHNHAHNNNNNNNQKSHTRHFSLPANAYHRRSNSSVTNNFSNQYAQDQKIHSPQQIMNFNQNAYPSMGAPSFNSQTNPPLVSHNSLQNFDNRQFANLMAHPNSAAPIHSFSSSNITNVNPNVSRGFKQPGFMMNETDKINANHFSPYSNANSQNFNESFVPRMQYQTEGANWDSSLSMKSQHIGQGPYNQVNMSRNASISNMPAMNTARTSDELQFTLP

The exact form of at least one protein or probe is not confirmed. Results from cells or extracts need not show a direct contact. A negative result means that nothing was seen under these conditions.

As for “UGUAGUUA [PHD1 3' UTR PUF-binding element UGUAGUUA]”, under setting [1], the binding result was “binds”.
For ACAAGUUA [PHD1 mutant element ACAAGUUA], under “in vivo RNA Tagging, both elements mutated together in PHD1 mRNA, no U-tag, variant of PHD1 3' UTR PUF-binding element UGUAGUUA”, the binding result is recorded as “no binding”.
Consider “UGUAACAUUA [PHD1 3' UTR PUF-binding element UGUAACAUUA]”, for which the binding result under setting [1] is listed as “binds”.
For the sequence “ACAAACAUUA [PHD1 mutant element ACAAACAUUA]”, the binding result (in vivo RNA Tagging, both elements mutated together in PHD1 mRNA, no U-tag) is on record as “no binding”.
